Values quoted from earlier work in US20080064701A1, “Anti-diabetic combinations” (priority 2007, published 2008).
For at least one compound, name, drawing or mass did not settle the structure.

Test system: patients with T2DM
Settings: 24-week; background pioglitazone (30 or 45 mg daily); cited from earlier work

CCc1ccc(CCOc2ccc(CC3SC(=O)NC3=O)cc2)nc1 (stereo not shown) [pioglitazone]
patients achieving a HbA1C of <7%: 23%
